The list is a part of this screen's results and no random one: it gathers tests that were run many times, whatever their T/C, doses with no T/C, and many T/C values between a quarter and a half above the control. Further doses and runs are listed elsewhere. T/C: endpoint of the treated group in % of that of the vehicle group. Some doses have a count of surviving animals in place of a T/C: the source holds a T/C of zero for them, seemingly a mark for toxic or unscored doses. Some doses without a T/C left all or most animals alive at the check, yet need not have been tolerated: survival well below the control is almost never listed, so the zero probably covers shortened survival too. Survivors were counted at the toxicity check, usually on the fifth day, unless a day is given; later deaths do not show. Schedule codes are those of the source, read here as Q, the interval in days (D) or hours (H), X, the number of doses. Where survival is the endpoint, this PubChem deposit counts one and a half times the control or more as active, and values a quarter to a half above the control carry no call in these data; other NCI protocols may use other cut-offs. Some T/C values are followed by the survivors on the day toxicity was checked, most often the fifth; without a count, all were alive then. Some doses were run more than once; the results are listed from low to high. Brackets with × count equal records among those shown. Starred links: 1 amine or outer side, 2 acyl side, 3 side chain; linkers in the order of their positions; H or OH if unused. Positions of bridges follow the written chain, without caps; N, C: chain ends. Non-standard residues stand in square brackets, D forms with d. Residues, ends and D or L forms follow the SMILES beside them. Chains are numbered I, II in the order given. Actinocin(9to1) = Cc1c2oc3c(C)ccc(C(=O)[*:1])c3nc-2c(C(=O)[*:2])c(N)c1=O; aThr = C[C@H](O)[C@H](N)C(=O)O; NMeV = CN[C@H](C(=O)O)C(C)C; Sar = CNCC(=O)O

For this experiment, the system named is BDF1 mice, P388/ADR leukemia ip, median survival T/C. Description: NCI In Vivo Anticancer Drug Screen. Data for tumor model P388 Leukemia resistant to Adriamycin; NSC 123127, Developed at Scr 06 and 41 (intraperitoneal) in B6D2F1 (BDF1) mice. Particulars: T/C endpoint: median survival time, higher T/C = longer survival. How it is done:
The antitumor activity of compounds was measured in mice bearing transplantable tumors. Survival or tumor size were measured and the results are expressed as the measurement made in the treated group (T) divided by the measurement made in the vehicle treated control group (C). The tumor model used in this assay is P388 Leukemia resistant to Adriamycin; NSC 123127, Developed at Scr 06 and 41 (intraperitoneal) in B6D2F1 (BDF1) mice

Where [1] appears, read: dose: 4.0 mg/kg/injection, schedule: Q04DX003 (ip), vehicle: water.
The mark [2] stands for this setting: dose: 8.0 mg/kg/injection, schedule: Q04DX003 (ip), vehicle: saline.
Setting [3] is: dose: 8.0 mg/kg/injection, schedule: Q04DX003 (ip), vehicle: water.
Setting [4] is: dose: 3.6 mg/kg/injection, schedule: Q04DX003 (ip), vehicle: water.
[5] abbreviates: dose: 6.0 mg/kg/injection, schedule: Q04DX003 (ip), vehicle: water.

As to `NC(C/[N+]([O-])=N/O)C(=O)O` (configuration not stated), where the note is “dose: 173.0 mg/kg/injection, schedule: Q04DX003 (ip), vehicle: sodium bicarbonate”, the T/C is 139 % of control. The survivor count (dose: 800.0 mg/kg/injection, schedule: Q04DX003 (ip), vehicle: sodium bicarbonate) is reported as 8 of 8.

For the compound `O=C(Nc1ccc(C2=NCCCN2)cc1)c1ccc(C(=O)Nc2ccc(C3=NCCCN3)cc2)cc1`, the T/C (dose: 18.0 mg/kg/injection, schedule: Q04DX003 (ip), vehicle: other) was 131 % of control [7 of 8 alive]. In addition, under “dose: 50.0 mg/kg/injection, schedule: Q04DX003 (ip), vehicle: other”, the survivor count is 6 of 8.

Consider `C[n+]1ccc(Nc2ccc(NC(=O)c3ccc(Nc4cc[n+](C)c5ccc(N)cc45)cc3)cc2)cc1`, for which the T/C (dose: 4.32 mg/kg/injection, schedule: Q01DX009 (ip), vehicle: water) was 141 % of control. Besides, the survivor count was 3 of 8 (dose: 12.0 mg/kg/injection, schedule: Q01DX009 (ip), vehicle: water) and 2 of 8 (dose: 20.0 mg/kg/injection, schedule: Q01DX009 (ip), vehicle: water).

On to `Cc1c(N)nc([C@H](CC(N)=O)NC[C@H](N)C(N)=O)nc1C(=O)N[C@H](C(=O)N[C@H](C)[C@@H](O)[C@H](C)C(=O)N[C@H](C(=O)NCCc1nc(-c2nc(C(=O)NCCC[S+](C)C)cs2)cs1)[C@@H](C)O)C(OC1OC(CO)C(O)C(O)C1OC1OC(CO)C(O)C(OC(N)=O)C1O)c1cnc[nH]1` (some centres not stated), for which the survivor count (dose: 61.7 mg/kg/injection, schedule: Q04DX003 (ip), vehicle: saline) is 8 of 8.

On to `COc1cccc2c1C(=O)c1c(O)c3c(c(O)c1C2=O)C[C@@](O)(C(=O)CO)C[C@@H]3OC1CC(N)C(O)C(C)O1` (some centres not stated), for which the T/C is 127 % of control (dose: 1.3 mg/kg/injection, schedule: Q01DX004 (ip), vehicle: saline with Tween-80); 102 (4×), 107, 111, 125 % of control (dose: 1.44 mg/kg/injection, schedule: Q04DX003 (ip), vehicle: water); 98, 108, 115, 116 (2×), 120 (2×), 121 % of control (dose: 1.73 mg/kg/injection, schedule: Q04DX003 (ip), vehicle: saline); 130 % of control (dose: 2.16 mg/kg/injection, schedule: Q01DX004 (ip), vehicle: saline with Tween-80); 100, 104, 106 (2×), 107, 115 % of control (dose: 2.4 mg/kg/injection, schedule: Q04DX003 (ip), vehicle: water); 107, 108 (2×), 113, 122, 123, 125, 132 % of control (2×) (dose: 2.88 mg/kg/injection, schedule: Q04DX003 (ip), vehicle: saline). Besides, the T/C is, setting by setting: (dose: 3.4 mg/kg/injection, schedule: Q04DX003 (ip), vehicle: water) 134 % of control; under setting [1], 91, 100, 103, 111, 116, 120, 125 % of control; (dose: 4.8 mg/kg/injection, schedule: Q04DX003 (ip), vehicle: saline) 98, 103, 105, 107, 110, 115, 120, 120 [7 of 8 alive], 142 % of control; (dose: 6.0 mg/kg/injection, schedule: Q04DX003 (ip), vehicle: saline) 126 % of control; (dose: 6.67 mg/kg/injection, schedule: Q04DX003 (ip), vehicle: water) 88, 91, 95, 97, 109, 112 % of control; under setting [2], 86 and 109 % of control. Further, the survivor count is, setting by setting: (dose: 3.6 mg/kg/injection, schedule: Q01DX004 (ip), vehicle: saline with Tween-80) 8 of 8; (dose: 6.0 mg/kg/injection, schedule: Q01DX004 (ip), vehicle: saline with Tween-80) 8 of 8; under setting [2], 8 of 8; under setting [3], 8 of 8; (dose: 13.33 mg/kg/injection, schedule: Q04DX003 (ip), vehicle: saline) 8 of 8.

`O=NN(CCCl)C(=O)NCCCl`: under “dose: 60.0 mg/kg/injection, schedule: Q01DX001 (ip), vehicle: saline + alcohol”, the survivor count is 8 of 8.

As to `CCC1(O)CC(OC2CC(N(C)C)C(OC3CC4OC5CC(=O)C(C)OC5OC4C(C)O3)C(C)O2)c2c(cc3c(c2O)C(=O)c2c(O)ccc(O)c2C3=O)C1C(=O)OC` (configuration not stated), the T/C (dose: 2.16 mg/kg/injection, schedule: Q04DX003 (ip), vehicle: water) is 140 % of control. Also, the survivor count is, setting by setting: under setting [4], 8 of 8; under setting [1], 5 of 8; under setting [5], 4 of 8.

`CSCS(=O)C[C@H](CO)NC(=O)/C=C/c1c(C)[nH]c(=O)[nH]c1=O` (some centres not stated): the survivor count is 7 of 8 (dose: 3.33 mg/kg/injection, schedule: Q04DX003 (ip), vehicle: saline); 4 of 8 (dose: 4.0 mg/kg/injection, schedule: Q04DX003 (ip), vehicle: saline); 8 of 8 (dose: 800.0 micrograms/kg/injection, schedule: Q01DX009 (ip), vehicle: saline).

With `COc1cccc2c1C(=O)c1c(O)c3c(c(O)c1C2=O)C[C@@](O)(C(C)=O)C[C@@H]3OC1CC(N)C(O)C(C)O1` (some centres not stated), for the setting “dose: 2.88 mg/kg/injection, schedule: Q04DX003 (ip), vehicle: water”, the T/C is 130 % of control. In addition, the survivor count (dose: 13.33 mg/kg/injection, schedule: Q04DX003 (ip), vehicle: water) is 8 of 8.

With `COC(=O)[C@@H]1c2cc3c(c(O)c2[C@@H](OC2OC(C)C(OC)C(C)(OC)C2OC)C[C@]1(C)O)C(=O)c1c(O)cc2c(c1C3=O)O[C@H]1O[C@]2(C)[C@H](O)[C@@H](N(C)C)[C@@H]1O` (some centres not stated), the survivor count runs as follows: (dose: 3.0 mg/kg/injection, schedule: Q04DX003 (ip), vehicle: water) 8 of 8; under setting [4], 7 of 7; under setting [5], 7 of 8.

Regarding `O=c1[nH]cc(F)c(=O)[nH]1`, the survivor count (dose: 100.0 mg/kg/injection, schedule: Q04DX003 (ip), vehicle: saline) was 8 of 8.

Take `COc1cc2c[n+](C)c3c4cc5c(cc4ccc3c2cc1OC)OCO5`: the T/C (dose: 133.3 mg/kg/injection, schedule: Q04DX003 (ip), vehicle: Klucel (hydroxypropylcellulose) (HPC)) is 125 % of control. Also, the survivor count was 8 of 8 (dose: 167.0 mg/kg/injection, schedule: Q04DX003 (ip), vehicle: other) and 7 of 8 (dose: 320.0 mg/kg/injection, schedule: Q04DX003 (ip), vehicle: other).

As to `O=CC(NC(=O)N(CCCl)N=O)C(O)C(O)C(O)CO` (configuration not stated), the survivor count (dose: 30.0 mg/kg/injection, schedule: Q04DX003 (ip), vehicle: saline) was 8 of 8.

`Cc1c2oc3c(C)ccc(C(=O)N[C@@H]4C(=O)N[C@H](C(C)C)C(=O)N5CCC[C@H]5C(=O)N(C)CC(=O)N(C)[C@@H](C(C)C)C(=O)O[C@H]4C)c3nc-2c(C(=O)N[C@@H]2C(=O)N[C@H](C(C)C)C(=O)N3CCC[C@H]3C(=O)N(C)CC(=O)N(C)[C@@H](C(C)C)C(=O)O[C@H]2C)c(N)c1=O` (I: [aThr][dV]P[Sar][NMeV] / II: [aThr][dV]P[Sar][NMeV]; ester I:1-I:C, II:1-II:C; linker I:N-II:N via Actinocin(9to1)): the T/C (dose: 0.11 mg/kg/injection, schedule: Q04DX003 (ip), vehicle: saline) was 126 % of control; the T/C (dose: 0.18 mg/kg/injection, schedule: Q04DX003 (ip), vehicle: saline) was 145 % of control; the T/C (dose: 180.0 micrograms/kg/injection, schedule: Q04DX003 (ip), vehicle: saline + alcohol) is 126 % of control. Also, the survivor count runs as follows: (dose: 0.5 mg/kg/injection, schedule: Q04DX003 (ip), vehicle: saline) 8 of 8; (dose: 500.0 micrograms/kg/injection, schedule: Q04DX003 (ip), vehicle: saline + alcohol) 7 of 8.

`CCC1=C(C[C@H]2NCCc3cc(OC)c(OC)cc32)C[C@H]2c3cc(OC)c(OC)cc3CCN2C1`: for the setting “dose: 50.0 mg/kg/injection, schedule: Q04DX003 (ip), vehicle: saline”, the survivor count is listed as 8 of 8.

As for `COC(=O)C[C@](O)(CCCC(C)(C)O)C(=O)O[C@@H]1C(OC)=C[C@]23CCCN2CCc2cc4c(cc2[C@H]13)OCO4`, the survivor count (dose: 3.33 mg/kg/injection, schedule: Q04DX003 (ip), vehicle: acid diluted with saline) is on record as 8 of 8.

For the compound `CCC1(O)CC(OC2CC(N(C)C)C(OC3CC(O)C(OC4CCC(=O)C(C)O4)C(C)O3)C(C)O2)c2c(cc3c(c2O)C(=O)c2c(O)ccc(O)c2C3=O)C1C(=O)OC` (configuration not stated), under setting [3], the survivor count is listed as 8 of 8.

Regarding `COc1cccc2c1C(=O)c1c(O)c3c(c(O)c1C2=O)C[C@@](O)(/C(C)=N/NC(=O)c1ccccc1)C[C@@H]3OC1CC(N)C(O)C(C)O1` (some centres not stated), the survivor count (dose: 30.0 mg/kg/injection, schedule: Q04DX003 (ip), vehicle: water) was 5 of 8.
